Patent publication US10543183B2, “Treatment and diagnosis of melanoma” (The Rockefeller University, priority 2012, dated 2020)
At least one compound was matched to its structure with a doubt left. Some compounds share one wording; it may come from a single statement.

Tests used:
[1] = tested on: B16F10 mouse melanoma cells; test: subcutaneous B16F10 tumor growth in mice; assay type: in vivo; settings: chow, WO-2010-0138598 Ex. 9 10 or 100 mg/kg/day, SB742881 100 mg/kg/day
Method: First, the cells were treated with 500 μg/mL DTIC for one week. Following this initial DTIC treatment, the remaining (˜10%) viable cells were allowed to recover for one week, after which 750 μg/mL of DTIC was added to the cell media for 5 days. Subsequent to this high-dose treatment, the cells were allowed to recover in the presence of low-dose DTIC (100 μg/mL) for one week. The cells were then continuously cultured in cell media containing 200 μg/mL DTIC for at least one month prior to grafting the cells into mice. DTIC was added to fresh cancer cell media every 3 days. […] DTIC was dissolved in the presence of citric acid (1:1 by weight) in water and administered daily by intraperitoneal injection.

[2] = tested on: human melanoma cells (MeWo, MeWo-LM2, HT-144, SK-Mel-2, SK-Mel-334.2); test: trans-well matrigel cell invasion assay, melanoma cells; assay type: cell-based; settings: 1 μM for 72 hours
Method: Cancer cells were serum-starved in 0.2% FBS DMEM-based media for 12 hours. Trans-well invasion chambers (354480, BD Biosciences, Bedford, Mass.) were pre-equilibrated prior to beginning the assay by adding 0.5 mL of starvation media to the top and bottom chambers. After 30 minutes, the media in the top chamber was removed, and 0.5 mL of media containing 1×10^5 cancer cells was added into each matrigel-coated trans-well insert and incubated at 37° C. for 24 hours. […] The basal side of each insert was imaged using an inverted fluorescence microscope (Zeiss Axiovert 40 CFL) at 5× magnification, taking three representative images for each insert. The number of invaded cells was quantified using ImageJ (NIH). […]
The cells were then serum starved for 16 hours in 0.2% FBS media in the presence of each corresponding drug or DMSO. […] Meanwhile, cancer cells were trypsinized and viable cells were counted using trypan blue. […] The basal side of each insert was imaged using an inverted fluorescence microscope (Zeiss Axiovert 40 CFL) at 5× magnification, and the number of DAPI-positive cells was quantified using ImageJ.

[3] = tested on: ApoE expression in human melanoma cells; test: ApoE mRNA expression by qRT-PCR in melanoma cells; assay type: cell-based; settings: for ApoE expression induction: MeWo cells, 500 nM, 1 μM, or 2 μM for 48 hours
Method: Total RNA was extracted from various cell lines using the miRvana kit (AM1560, Applied Biosystems, Austin, Tex.). The expression levels of mature miRNAs were quantified using the Taqman miRNA expression assay (4427975-0002228, Applied Biosystems). RNU44 was used as an endogenous control for normalization. For mRNA expression analyses, 600 ng of total RNA was reverse transcribed using the cDNA First-Strand Synthesis Kit (18080-051, Invitrogen), and roughly 200 ng of the resulting cDNA was then mixed with SYBR green PCR Master Mix (4309155, Applied Biosystems) and the appropriate primers. Each reaction was performed in quadruplicate, and mRNA expression was quantified by performing real-time PCR amplification using an ABI Prism 7900HT Real-Time PCR System (Applied Biosystems). GAPDH was used as an endogenous control for normalization. The following primers were used: […]
RNA was extracted from whole cell lysates using the Total RNA Purification Kit (17200, Norgen, Thorold, Canada). 600 ng of total RNA was then reverse transcribed into cDNA using the cDNA First-Strand Synthesis Kit (18080-051, Invitrogen), and quantitative real-time PCR amplification was performed as previously described (Pencheva et al., 2012) using an ABI Prism 7900HT Real-Time PCR System (Applied Biosystems, Austin, Tex.). Each PCR reaction was carried out in quadruplicates. Gene expression was normalized to GAPDH, which was used as an endogenous control.
For every sample, 600 ng of RNA was reverse transcribed into cDNA using the cDNA First-Strand Synthesis kit (Invitrogen). Approximately 200 ng of cDNA was mixed with SYBR® green PCR Master Mix and the corresponding forward and reverse primers specific for detection of human ApoE. Each reaction was carried out in quadruplicates, and ApoE mRNA expression levels were measured by quantitative real-time PCR amplification using an ABI Prism 7900HT Real-Time PCR System (Applied Biosystems). The relative ApoE expression was determined using the ΔΔCt method. GAPDH was used as an endogenous control for normalization purposes.

Q: Which results are given for `CC(C)(O)c1cn(-c2ccc(-c3cc(F)c(CO)c(S(C)(=O)=O)c3)cc2F)c(C(C)(C)c2c(Cl)cccc2Cl)n1` [Compound 12]?
A: melanoma primary tumor growth in vivo [1]: significantly inhibited; inhibition of cancer progression phenotypes (cell invasion, endothelial recruitment) versus lower potency LXR agonists [2]: more effective; potency of ApoE expression induction in vitro [3]: potently induce; ApoE expression induction [3]: varied degrees of ApoE expression induction

Q: With `CC(C)(O)c1cn(-c2ccc(-c3cccc(S(C)(=O)=O)c3)cc2)c(C(C)(C)c2ccccc2Cl)n1` [Compound 38] as the molecule, how does the ApoE expression induction [3] read?
A: The ApoE expression induction was “varied degrees of ApoE expression induction”.

Q: `CC(CCOc1cccc(CC(=O)O)c1)N(Cc1cccc(C(F)(F)F)c1Cl)CC(c1ccccc1)c1ccccc1` (stereo not drawn) [SB742881 25] was tested. Which “melanoma primary tumor growth in vivo” value [1] did it give?
A: Its value is “significantly inhibited”.

Q: What about the “inhibition of cancer progression phenotypes (cell invasion, endothelial recruitment) versus lower potency LXR agonists” value [2] of the same molecule?
A: Its value is “more effective”.

Q: What about the “potency of ApoE expression induction in vitro” value [3] of the same molecule?
A: Its value is “potently induce”.

Q: What about the ApoE expression induction [3] of the same molecule?
A: The ApoE expression induction was “varied degrees of ApoE expression induction”.
